At least one peptide structure holds a part that was inferred or is arguable (an end, a ring closure or a residue). Where a SMILES comes first, the peptide text is derived from it. [ ]: non-standard residue; d: D form.
Legend:
lean control mice [1] = assay: Acute food intake in lean control mice; assay type: in vivo
lean control mice [2] = assay: Acute and persistent glucose lowering and insulin releasing effects in lean control mice; assay type: in vivo
Procedure: All animal experiments were carried out in accordance with the UK Animals (Scientific Procedures) Act 1986. For food intake studies, fasted (18 h) mice were given intraperitoneal (i.p) injections of polypeptides at a dose of 25, 100 or 250 nmol/kg bw. Mice were then allowed free access to normal chow for 180 mins and cumulative food intake measured. […] Blood samples were collected from the cut tip on the tail vein of conscious mice into chilled fluoride/heparin glucose micro-centrifuge tubes (Sarstedt, Numbrecht, Germany) at the time points indicated in the Drawings. Blood glucose was measured directly using a hand-held Ascencia Contour blood glucose meter (Bayer Healthcare, Newbury, Berkshire, UK).

high fat fed mice [3] = assay: Sub chronic 21 day twice daily study in high fat fed mice (energy intake, body weight, body composition, glucose, insulin); assay type: in vivo; conditions: 25 nmol/kg twice daily
Procedure: All animal experiments were carried out in accordance with the UK Animals (Scientific Procedures) Act 1986. […] On day 21, a non-fasted 24 h glucose profile was conducted. […] HOMA-IR was determined using the equation HOMA-IR=fasting glucose (mmol/l)×fasting insulin (mU/l)/22.5. […] Terminal analysis included measurement of total body fat and lean mass by DEXA scanning (Piximus Densitometer, Inside Outside Sales, Madison Wis., USA) and extraction of pancreatic tissue for analysis as detailed below. […] Briefly, pancreatic tissues were fixed in 4% parafolmaldehyde at 4° C. for 48 h. Pancreata were then embedded in paraffin wax and processed using an automated tissue processor (Leica TP1020, Leica Microsystems, Nussloch, Germany). […] Abcam, ab6995) or guinea-pig anti-glucagon antibody (PCA2/4, 1:400; raised in-house). […] The slides were viewed under a FITC (488 nm) or TRITC filter (594 nm) using a fluorescent microscope (Olympus system microscope, model BX51) and photographed using a DP70 camera adapter system. Islet parameters were analysed using Cell^F image analysis software (Olympus Soft Imaging Solutions, GmbH). Blood samples were collected from the cut tip on the tail vein of conscious mice into chilled fluoride/heparin glucose micro-centrifuge tubes (Sarstedt, Numbrecht, Germany) at the time points indicated in the Drawings. Blood glucose was measured directly using a hand-held Ascencia Contour blood glucose meter (Bayer Healthcare, Newbury, Berkshire, UK).

SaOS-2 cells = assay: IGF-1 release from SaOS-2 cells; assay type: cell-based, Human; conditions: 1e-12-1e-6 M, 8 hours
Procedure: SaOS-2 cells were seeded at a density of 2e5 cells/well in 6-well plates in 10% FBS containing media. Media were changed 24 hours prior to experimentation with 0.1% FBS. Media was then removed, followed by an addition of 1 ml of test peptides of the invention (1e-12-1e-6 M). Plates were incubated at 37° C. for 8 hours. After incubation, media was collected and IGF-1 released in the supernatant was measured using IGF-1 Immunoassay kit (Quantikine, R&D Systems) according to the manufacturer's instructions. The concentration of IGF-1 in the samples was determined from a standard curve of recombinant human IGF-1 in the range of 0-60 ng/ml.

high fat fed mice [4] = assay: Glucose tolerance test after 42 days treatment; assay type: in vivo; conditions: glucose 18 mmol/kg
Procedure: FIG. 14A-14B illustrate tests conducted after once daily treatment with saline, GIP/Xenin hybrid, GIP/Xenin hybrid Asp and GIP/Xenin hybrid Glu for 42 days. (FIG. 14A) Blood glucose before and after i.p injection of glucose (18 mmol/kg bw) alone in 18 hr fasted mice. (FIG. 14B) AUC values for blood glucose for 0-105 min are shown in insets. Values represent means±SEM for 6-7 mice. *P<0.05, **P<0.01 and ***P<0.001 compared to saline control;

[5] = 25 nmol/kg 4 h before glucose 18 mmol/kg, vs saline

CC[C@H](C)[C@H](NC(=O)[C@H](CO)NC(=O)[C@H](Cc1ccc(O)cc1)NC(=O)[C@H](CC(=O)O)NC(=O)[C@H](CO)NC(=O)[C@@H](NC(=O)[C@H](Cc1ccccc1)NC(=O)[C@@H](NC(=O)CNC(=O)[C@H](CCC(=O)O)NC(=O)[C@@H](C)NC(=O)[C@@H](N)Cc1ccc(O)cc1)[C@@H](C)O)[C@@H](C)CC)C(=O)N[C@@H](C)C(=O)N[C@@H](CCSC)C(=O)N[C@@H](Cc1c[nH]cn1)C(=O)N1CCC[C@H]1C(=O)N[C@@H](CCC(N)=O)C(=O)N[C@@H](CCC(N)=O)C(=O)N1CCC[C@H]1C(=O)N[C@@H](Cc1c[nH]c2ccccc12)C(=O)N[C@H](C(=O)N[C@@H](CC(C)C)C(=O)O)[C@@H](C)CC [(DAla2)GIP/xenin-8-Gln, TYR-(d)ALA-GLU-GLY-THR-PHE-ILE-SER-ASP-TYR-SER-ILE-ALA-MET-HIS-PRO-GLN-GLN-PRO-TRP-ILE-LEU] (H-Y[dA]EGTFISDYSIAMHPQQPWIL-OH; N-terminus and C-terminus assumed)
Food intake at 30 min post-injection (lean control mice [1]; 25 nmol/kg i.p., overnight fasted mice, vs saline): significant (P<0.05) reduction in food intake
Cumulative food intake at 120 min post-injection (lean control mice [1]; 250 nmol/kg i.p.): significant (P<0.05) reductions in cumulative food intake
Overall AUC blood glucose, peptide 4 h prior to glucose load (lean control mice [2]; [5]): significantly reduced
Plasma insulin AUC, peptide 4 h prior to glucose load (lean control mice [2]; [5]): increased plasma insulin AUC values (P<0.05)
Blood glucose at 30 min post injection (lean control mice [2]; 25 nmol/kg with glucose 18 mmol/kg i.p., non-fasted mice, vs glucose alone): significantly (P<0.05) lowered blood glucose values
Overall 0-105 min AUC blood glucose (lean control mice [2]; 25 nmol/kg with glucose 18 mmol/kg i.p., vs glucose alone): significantly (P<0.05) decreased
Non-fasting 24 h glucose profile on day 21 (high fat fed mice [3]): significantly (P<0.05) reduced compared to saline controls at 17:00 h
Circulating plasma insulin (high fat fed mice [3]; 21 days): tendency for reduced plasma insulin levels
Non-fasting blood glucose vs saline control high fat mice (high fat fed mice [3]; 21 days): significantly (P<0.05 to P<0.01) reduced on observation days 3, 6 and 15
Energy intake or body weight (high fat fed mice [3]; 21 days, vs high fat controls): no significant effect
Total body fat and lean mass (DXA) (high fat fed mice [3]; after 21 days): unaltered
Non-fasting blood glucose vs lean control mice (high fat fed mice [3]; from day 12 onwards): not significantly different from lean control mice
IGF-1 release from SaOS-2 cells (SaOS-2 cells): dose-dependently stimulated
Blood glucose concentrations after glucose challenge (high fat fed mice [4]): also reduced blood glucose concentrations, but not as effectively as GIP/Xenin Asp

Source: patent US11738065B2, “Polypeptides and analogues thereof for use in the treatment of diabetes and bone disorders” (UNIVERSITY OF ULSTER, priority 2015, dated 2023)
